Library screen at single concentrations

Amino acid sequences for entries named in this document (tags omitted). Residues count along the entry.
UniProt A4I591, 1-473: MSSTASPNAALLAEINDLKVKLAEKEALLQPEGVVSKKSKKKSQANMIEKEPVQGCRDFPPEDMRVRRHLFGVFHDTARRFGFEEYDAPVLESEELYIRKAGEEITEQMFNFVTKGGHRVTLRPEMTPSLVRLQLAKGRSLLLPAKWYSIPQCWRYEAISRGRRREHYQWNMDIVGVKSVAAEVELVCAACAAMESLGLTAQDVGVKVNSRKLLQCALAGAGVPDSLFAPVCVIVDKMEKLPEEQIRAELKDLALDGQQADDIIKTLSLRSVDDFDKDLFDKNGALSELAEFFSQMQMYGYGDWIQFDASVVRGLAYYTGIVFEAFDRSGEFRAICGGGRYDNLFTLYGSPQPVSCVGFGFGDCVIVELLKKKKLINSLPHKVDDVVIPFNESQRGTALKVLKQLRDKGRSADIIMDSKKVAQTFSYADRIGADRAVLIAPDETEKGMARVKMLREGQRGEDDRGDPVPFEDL
UniProt I6X8D2, whole entry: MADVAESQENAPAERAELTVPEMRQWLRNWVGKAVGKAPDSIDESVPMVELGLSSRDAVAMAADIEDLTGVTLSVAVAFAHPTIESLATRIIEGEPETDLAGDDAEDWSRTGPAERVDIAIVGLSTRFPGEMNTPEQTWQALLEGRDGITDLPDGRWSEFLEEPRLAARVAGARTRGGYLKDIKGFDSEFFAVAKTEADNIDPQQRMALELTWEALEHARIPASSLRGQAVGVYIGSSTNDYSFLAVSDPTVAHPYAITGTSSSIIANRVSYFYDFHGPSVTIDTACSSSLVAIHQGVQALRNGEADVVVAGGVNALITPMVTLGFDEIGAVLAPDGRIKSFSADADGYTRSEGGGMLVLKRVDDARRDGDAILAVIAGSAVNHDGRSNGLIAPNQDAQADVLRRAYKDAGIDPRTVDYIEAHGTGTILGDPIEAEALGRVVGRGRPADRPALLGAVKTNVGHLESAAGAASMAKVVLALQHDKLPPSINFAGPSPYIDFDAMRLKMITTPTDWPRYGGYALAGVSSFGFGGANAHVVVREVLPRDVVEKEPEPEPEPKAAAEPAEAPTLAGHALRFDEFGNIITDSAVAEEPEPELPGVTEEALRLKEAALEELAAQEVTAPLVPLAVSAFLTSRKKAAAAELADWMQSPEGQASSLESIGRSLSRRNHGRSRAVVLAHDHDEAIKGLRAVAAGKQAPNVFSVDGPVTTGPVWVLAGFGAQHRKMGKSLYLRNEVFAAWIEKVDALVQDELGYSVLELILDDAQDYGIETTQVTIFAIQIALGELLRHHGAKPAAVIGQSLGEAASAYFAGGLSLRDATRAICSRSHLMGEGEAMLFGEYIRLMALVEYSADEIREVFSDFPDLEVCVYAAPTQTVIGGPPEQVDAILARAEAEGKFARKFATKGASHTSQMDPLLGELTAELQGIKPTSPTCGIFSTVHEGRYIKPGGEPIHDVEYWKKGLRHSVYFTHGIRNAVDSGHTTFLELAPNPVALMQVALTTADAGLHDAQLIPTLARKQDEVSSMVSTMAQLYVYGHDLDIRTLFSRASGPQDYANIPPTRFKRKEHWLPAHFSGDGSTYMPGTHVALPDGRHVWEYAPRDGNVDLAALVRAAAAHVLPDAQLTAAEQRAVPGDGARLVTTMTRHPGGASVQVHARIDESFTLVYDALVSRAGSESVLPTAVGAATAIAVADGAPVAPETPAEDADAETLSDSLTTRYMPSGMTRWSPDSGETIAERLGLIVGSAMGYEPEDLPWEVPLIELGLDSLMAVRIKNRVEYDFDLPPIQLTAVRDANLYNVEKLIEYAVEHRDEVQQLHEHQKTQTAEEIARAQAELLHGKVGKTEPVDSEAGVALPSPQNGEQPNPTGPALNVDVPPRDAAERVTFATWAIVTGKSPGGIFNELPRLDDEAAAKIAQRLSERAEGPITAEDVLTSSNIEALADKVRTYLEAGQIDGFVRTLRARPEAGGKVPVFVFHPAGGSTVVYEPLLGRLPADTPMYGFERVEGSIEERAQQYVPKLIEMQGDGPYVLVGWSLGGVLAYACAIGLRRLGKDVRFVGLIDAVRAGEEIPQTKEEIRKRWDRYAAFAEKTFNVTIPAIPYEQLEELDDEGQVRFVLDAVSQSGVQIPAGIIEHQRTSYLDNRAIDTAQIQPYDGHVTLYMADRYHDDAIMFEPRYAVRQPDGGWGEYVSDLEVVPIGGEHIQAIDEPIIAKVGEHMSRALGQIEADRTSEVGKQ

Data taken from ChEMBL document CHEMBL3988442, “University of Dundee, Small-Polar-MMV Screening Library” (2021).

Leishmania in macrophages: 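Cell assay of Leishmania donovani living inside macrophages; the read-out is not stated. Compounds at 30 µM. Higher reads as stronger inhibition (inferred: compounds with an IC50 in retests scored well above the rest). Of about 69,000 compounds tested this way, about 1,000 (1.5%) reached 50% or more in at least one test.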
LiHisRS: 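Enzyme assay of histidyl-tRNA synthetase; the read-out is not stated. Target: Histidine-tRNA ligase, Leishmania infantum (UniProt A4I591). Concentration: 30 µM. Higher reads as stronger inhibition (inferred: compounds with an IC50 in retests scored well above the rest). The assay is labelled LdHisRS but filed under L. infantum. Of about 69,000 compounds tested this way, about 410 (0.6%) reached 50% or more in at least one test.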
Pks13 thioesterase: 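Enzyme assay of the thioesterase domain of polyketide synthase 13; the read-out is not stated. Target: Polyketide synthase Pks13, Mycobacterium tuberculosis (UniProt I6X8D2). Tested at 30 µM. Higher reads as stronger inhibition (inferred from which compounds were picked for retests). About 67,000 compounds were tested under these conditions; 0.46% (about 300) showed 50% or more at least once.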

Values are the deposited “Percent Effect”, in %.
The controls that fix the scale are not given in the record; negative values are as filed.
The compounds are a random part of those screened.
Two or more numbers in one place are separate tests of the same structure; such repeats can differ widely.
A dash means the value is not listed here; it may have been measured.

compound,Leishmania in macrophages,LiHisRS,Pks13 thioesterase
COc1cc(C)nc(N2CCN(C(=O)c3cc(C)no3)CC2)n1,8.645%,-18.42%,-24.18%
Cc1ccc(OC2CCN(C(=O)Cc3c(C)[nH]c(=O)[nH]c3=O)CC2)cc1,-1.55%,11.9%,6.089%
CSCCNC(=O)c1cc(Br)cn1C(C)C,27.84%,-1.37%,-17.92%
NC(=O)C1=NN2C(=NS(=O)(=O)c3ccccc32)N1,2.464%,14.81%,-4.053%
CC(NC(=O)N1CCCCCC1)c1ccc(S(N)(=O)=O)cc1 (stereo not drawn),-10.05%,19.47%,-15.61%
O=C(C1CCOCC1)N1CCO[C@H]2[C@@H](OCC3CC3)CC[C@@H]21,-,17.95%,-2.429%
O=C(c1ccncc1)N1CCCn2c(CN3CCCCC3)nnc2C1,-1.304%,9.489%,-31.78%
Cc1cccc(CN2CCC(c3nnsc3S(C)(=O)=O)CC2)n1,39.52% & 12.63%,22.68%,17.3%
CC(C)CN1CCN(S(=O)(=O)c2cn(C)cn2)Cc2cccnc21.O=C(O)C(F)(F)F.O=C(O)C(F)(F)F,24.55%,-,-
Cc1noc(C)c1CNC(=O)c1ccc(NC2CC2)nc1,-1.057%,16.67%,-8.79%
CC(C)(CNc1cn[nH]c(=O)c1Cl)c1ccc2c(c1)OCO2,21.67%,11.67%,-37.78%
CC(=O)c1c(O)n(C)c2ccc(F)cc12,5.561%,24.14%,-2.96%
Cc1nc(CN2CCC3(CCN(Cc4cnn(C)c4)C3)C2=O)cs1 (stereo not drawn),5.731%,-1.389%,-13.33%
COc1ccnc(CN2CCCC(CCc3ccccc3)C2)c1OC (stereo not drawn),36.9%,22.5%,-5.598%
Cc1[nH]c2ccccc2c1-c1ccnc(NCCN2CCOCC2)n1,12.18%,1.351%,4.648%
Cc1cc(CN2CCc3cncnc3C2)no1,20.03%,9.375%,-28.63%
CC1=C[C@@H](CC#N)[C@H](C(C)C)C[C@H]1CC(=O)N1CCN(C)CC1,-32.89%,-2.778%,27.4%
[H][C@]12CN(CCCC(=O)c3ccccc3)CC[C@@]1(O)CCN(S(C)(=O)=O)C2,22.63%,-,-
COc1ccc(OC)c(CNC2CCCN(c3cccnn3)C2)c1 (stereo not drawn),32.87%,10%,14.6%
O=C(O)C(F)(F)F.O=C(O)C(F)(F)F.[H][C@@]12CCN(Cc3nc(C)cs3)[C@]1([H])CC[C@@H](C(=O)Nc1cccnc1)O2,50.68%,-,-
CCN(CC)CCSc1nnc(N2CCN(c3ccccc3)CC2)s1,-2.903%,13.56%,-0.4043%
Cc1nnc2n1CCN(Cc1nc3c(F)cccc3[nH]1)C2,14.44%,16.87%,0.9041%
COc1ccc(-c2noc(C3=NN(C)C(=O)CC3)n2)cc1OC,7.733%,5.714%,-11.7%
CC1CN(CC(=O)Nc2cccnc2)CCN1c1nccs1 (stereo not drawn),19.22%,0%,-4.187%
COCCC(=O)N1CCC(c2nc(O)cc(-c3ccncc3)n2)C1 (stereo not drawn),-14.41%,7.292%,-1.184%
CSc1nnc(CC2CCN(C(=O)COc3cccnc3)CC2)n1C,11.38%,12.82%,-32.29%
O=C(O)C(F)(F)F.[H][C@@]12CN(C(=O)[C@H]3CCCO3)C[C@]1([H])C(=O)N(Cc1csc(C)n1)C2,46.74%,-,-
CN(Cc1nnc2n1CCC2)S(=O)(=O)c1ccc(Br)cc1Cl,26.16%,22.22%,-14.72%
c1cc(C2CCCN2CC2CCCCC2)n[nH]1 (stereo not drawn),33.42%,11.35%,-1.14%
COc1ccc(CCN2CC(NCc3ncc[nH]3)CC2=O)cc1 (stereo not drawn),17.72%,4.918%,-8.198%
Cc1ccc(N2CCCN(C(=O)CCc3nccs3)CC2)nn1,0.4157%,4.425%,-
O=C(c1ncn2c1CNS(=O)(=O)c1ccccc1-2)N1CCCCCC1,-0.3711%,14.53%,-2.926%
Cn1cnc2cc(C(=O)N3CCN(CCO)[C@@H]4CS(=O)(=O)C[C@@H]43)ccc21,-,15.08%,16.41%
CCOc1cccc(CNc2ccccc2C(=O)OC)c1O,-15.91%,-1.942%,-11.55%
c1cc(CN2CC[C@@H]3[C@@H](CO[C@H]3CN3CCOCC3)C2)cs1,-,18.06%,-18.12%
Cc1nc(CN2CCN(Cc3cc4n(n3)CCNC4)CC2)cs1,7.476%,4.762%,-6.349%
COCCN(C)C[C@@H]1CN(C(=O)C(C)(C)c2ccccc2)C[C@@H]1CO,-15.18%,-4.494%,-6.101%
c1cc(CNCC2CNc3ccnn3C2)cc(OC2CCCCC2)n1 (stereo not drawn),25.21%,21.05%,-0.1399%
Cc1ncsc1C(=O)NCc1ccnc(N2CCN(C)CC2)c1,41.78%,18.35%,-10.59%
Cc1cc(C(=O)O)ccc1NS(=O)(=O)c1c(C)nn(C(C)C)c1C,22.19%,17.14%,-15.98%
CC(CO)NS(=O)(=O)c1cccc(C(C)C)c1 (stereo not drawn),10.63%,6.202%,6.098%
COc1ccc(CN2C[C@H](N3CCCC3=O)[C@@H]3OCCC[C@@H]32)cc1,-,14.04%,-37.99%
COc1ccc(C2CNCCN2C(=O)c2nccc3ccccc23)cc1 (stereo not drawn),-21.87%,4.255%,2.418%
CCN(CC)C(CNC(=O)c1ccc(S(=O)(=O)NC)cc1)c1ccco1 (stereo not drawn),30.83%,12.94%,-7.269%
CC(C(=O)Nc1ccnn1C(C)C)N1CCCN(c2nccs2)CC1 (stereo not drawn),3.422%,15.09%,1.833%
COc1ccc(CCNCc2c(C)nn(C)c2N(C)C)cc1OC,-,9.649%,-0.3293%
Cc1ccc(OCC(=O)Nc2cc(C(=O)O)cc(S(C)(=O)=O)c2)cc1C,32.76%,12.05%,-12.09%
Cc1cccc(CS(=O)(=O)c2nnc([C@@H](N)Cc3ccccc3)o2)c1.Cl,-2.371%,-,-
Cc1ccc(CN2CCC[C@@H]3CN(C(=O)c4ccco4)C[C@@H]32)o1,-,15.53%,-28.21%
CC(C)N(C)Cc1cnc2n1CCN(C(=O)Cc1ccsc1)C2.O=C(O)C(F)(F)F,5.737%,-,-
CN(C)C(=O)C(C)(C)c1ccc2c(c1)OCCO2,-4.84%,10.83%,-7.648%
Cc1ccc(C(=O)N2C[C@@H](OCc3cccnc3)[C@H]3OCCC[C@@H]32)o1,-,-6.195%,1.259%
Cc1cccc(COC2COC3(CCN(Cc4ccoc4)CC3)C2)n1 (stereo not drawn),-5.723%,12.82%,5.381%
CCn1cc2c(n1)CN(Cc1ccncc1)CC2COCC1CC1 (stereo not drawn),-,12.41%,-36.44%

3 of the entries, repeated:

| compound | Leishmania in macrophages | LiHisRS | Pks13 thioesterase |
|---|---|---|---|
| `COc1ccc(CN2C[C@H](N3CCCC3=O)[C@@H]3OCCC[C@@H]32)cc1` | - | 14.04% | -37.99% |
| `CC(CO)NS(=O)(=O)c1cccc(C(C)C)c1` (stereo not drawn) | 10.63% | 6.202% | 6.098% |
| `Cc1cccc(CN2CCC(c3nnsc3S(C)(=O)=O)CC2)n1` | 39.52% & 12.63% | 22.68% | 17.3% |